Data on 37 targets can be found in the supplement of paper PMC11006884.

By UniProt entry, the sequences of proteins in these tests, tags left out. Where a name states a change or a piece, a line headed by the entry shows the natural chain unless it says otherwise.
UniProt Q96CW5, whole entry, looked up: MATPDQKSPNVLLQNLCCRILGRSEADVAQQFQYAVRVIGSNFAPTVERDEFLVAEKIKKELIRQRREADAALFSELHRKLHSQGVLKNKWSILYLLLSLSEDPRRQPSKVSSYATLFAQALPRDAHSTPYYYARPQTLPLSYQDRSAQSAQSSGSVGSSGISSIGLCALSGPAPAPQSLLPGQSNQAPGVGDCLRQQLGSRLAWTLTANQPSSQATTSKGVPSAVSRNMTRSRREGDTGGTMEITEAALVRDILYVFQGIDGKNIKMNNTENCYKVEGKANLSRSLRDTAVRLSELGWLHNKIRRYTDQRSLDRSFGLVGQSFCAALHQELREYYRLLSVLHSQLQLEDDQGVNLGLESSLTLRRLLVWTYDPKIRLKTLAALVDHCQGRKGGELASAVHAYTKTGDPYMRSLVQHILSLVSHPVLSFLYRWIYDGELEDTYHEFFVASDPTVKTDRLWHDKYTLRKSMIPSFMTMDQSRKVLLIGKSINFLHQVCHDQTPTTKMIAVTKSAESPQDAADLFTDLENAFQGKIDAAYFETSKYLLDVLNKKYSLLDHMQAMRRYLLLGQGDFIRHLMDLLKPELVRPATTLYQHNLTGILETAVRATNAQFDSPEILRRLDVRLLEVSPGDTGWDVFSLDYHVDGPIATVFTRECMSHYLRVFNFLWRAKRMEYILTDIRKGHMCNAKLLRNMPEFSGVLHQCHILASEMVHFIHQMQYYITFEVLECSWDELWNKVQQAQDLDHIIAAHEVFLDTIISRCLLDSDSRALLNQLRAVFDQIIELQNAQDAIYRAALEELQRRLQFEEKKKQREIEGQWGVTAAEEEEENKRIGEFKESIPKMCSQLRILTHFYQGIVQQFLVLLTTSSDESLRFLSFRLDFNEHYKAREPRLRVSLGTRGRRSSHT
UniProt Q92747, whole entry: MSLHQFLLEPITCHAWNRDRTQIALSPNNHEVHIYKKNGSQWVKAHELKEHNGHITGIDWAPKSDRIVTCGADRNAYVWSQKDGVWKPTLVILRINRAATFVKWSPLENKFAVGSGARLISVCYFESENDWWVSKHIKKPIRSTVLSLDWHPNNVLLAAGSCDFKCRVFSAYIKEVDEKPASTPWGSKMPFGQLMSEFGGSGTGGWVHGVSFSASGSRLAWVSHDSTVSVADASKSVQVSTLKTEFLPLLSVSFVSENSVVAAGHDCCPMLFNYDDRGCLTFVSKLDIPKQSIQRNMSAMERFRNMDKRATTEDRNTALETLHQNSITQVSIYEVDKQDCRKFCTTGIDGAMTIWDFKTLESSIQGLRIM
UniProt Q96GD4, whole entry: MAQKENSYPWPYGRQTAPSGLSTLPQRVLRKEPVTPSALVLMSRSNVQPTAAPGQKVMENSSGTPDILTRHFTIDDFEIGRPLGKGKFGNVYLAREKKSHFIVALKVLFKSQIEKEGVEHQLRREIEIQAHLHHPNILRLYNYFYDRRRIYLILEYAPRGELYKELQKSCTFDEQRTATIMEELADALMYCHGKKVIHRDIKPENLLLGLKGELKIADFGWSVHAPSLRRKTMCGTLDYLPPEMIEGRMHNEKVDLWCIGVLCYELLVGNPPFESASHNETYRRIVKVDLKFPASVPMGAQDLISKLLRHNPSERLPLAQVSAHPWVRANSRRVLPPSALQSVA
UniProt Q96CX2: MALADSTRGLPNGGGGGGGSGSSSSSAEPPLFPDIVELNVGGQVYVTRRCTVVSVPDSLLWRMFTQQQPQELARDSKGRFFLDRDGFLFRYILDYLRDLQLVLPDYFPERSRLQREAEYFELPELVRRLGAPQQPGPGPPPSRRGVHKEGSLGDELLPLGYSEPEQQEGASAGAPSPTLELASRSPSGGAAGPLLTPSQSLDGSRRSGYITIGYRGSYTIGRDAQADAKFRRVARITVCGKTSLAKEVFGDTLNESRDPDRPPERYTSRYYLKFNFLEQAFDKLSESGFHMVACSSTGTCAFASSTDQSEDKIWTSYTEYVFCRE
UniProt Q92620: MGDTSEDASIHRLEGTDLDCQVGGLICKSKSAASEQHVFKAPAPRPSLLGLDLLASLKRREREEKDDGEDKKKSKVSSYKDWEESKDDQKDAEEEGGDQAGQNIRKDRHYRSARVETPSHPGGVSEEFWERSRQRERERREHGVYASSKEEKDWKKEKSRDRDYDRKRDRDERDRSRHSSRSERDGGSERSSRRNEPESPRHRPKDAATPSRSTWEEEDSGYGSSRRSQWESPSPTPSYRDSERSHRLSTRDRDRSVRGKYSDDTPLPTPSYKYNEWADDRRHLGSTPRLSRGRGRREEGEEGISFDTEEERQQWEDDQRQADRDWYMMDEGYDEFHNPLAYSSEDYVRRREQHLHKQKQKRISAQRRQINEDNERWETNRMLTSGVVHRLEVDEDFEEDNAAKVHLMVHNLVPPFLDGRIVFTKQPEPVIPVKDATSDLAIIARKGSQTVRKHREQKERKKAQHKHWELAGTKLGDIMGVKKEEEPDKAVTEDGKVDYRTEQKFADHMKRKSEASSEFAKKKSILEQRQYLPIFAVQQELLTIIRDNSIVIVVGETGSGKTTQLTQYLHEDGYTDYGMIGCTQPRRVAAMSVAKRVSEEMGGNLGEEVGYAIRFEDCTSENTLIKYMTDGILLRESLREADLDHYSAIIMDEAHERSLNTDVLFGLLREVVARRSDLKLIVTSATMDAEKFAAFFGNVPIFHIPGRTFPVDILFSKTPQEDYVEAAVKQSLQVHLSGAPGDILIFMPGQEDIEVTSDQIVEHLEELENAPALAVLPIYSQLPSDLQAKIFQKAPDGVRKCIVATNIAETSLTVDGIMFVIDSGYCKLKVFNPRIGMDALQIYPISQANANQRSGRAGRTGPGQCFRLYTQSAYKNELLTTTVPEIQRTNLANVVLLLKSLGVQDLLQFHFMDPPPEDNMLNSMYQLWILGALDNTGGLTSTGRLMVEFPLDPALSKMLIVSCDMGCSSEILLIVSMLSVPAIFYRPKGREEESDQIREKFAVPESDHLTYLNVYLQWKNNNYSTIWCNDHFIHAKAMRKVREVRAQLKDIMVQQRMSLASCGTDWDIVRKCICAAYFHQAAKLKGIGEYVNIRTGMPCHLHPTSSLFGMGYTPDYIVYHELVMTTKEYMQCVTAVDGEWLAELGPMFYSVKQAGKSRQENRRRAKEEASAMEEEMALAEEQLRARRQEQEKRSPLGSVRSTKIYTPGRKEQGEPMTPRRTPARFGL
UniProt Q96GS4: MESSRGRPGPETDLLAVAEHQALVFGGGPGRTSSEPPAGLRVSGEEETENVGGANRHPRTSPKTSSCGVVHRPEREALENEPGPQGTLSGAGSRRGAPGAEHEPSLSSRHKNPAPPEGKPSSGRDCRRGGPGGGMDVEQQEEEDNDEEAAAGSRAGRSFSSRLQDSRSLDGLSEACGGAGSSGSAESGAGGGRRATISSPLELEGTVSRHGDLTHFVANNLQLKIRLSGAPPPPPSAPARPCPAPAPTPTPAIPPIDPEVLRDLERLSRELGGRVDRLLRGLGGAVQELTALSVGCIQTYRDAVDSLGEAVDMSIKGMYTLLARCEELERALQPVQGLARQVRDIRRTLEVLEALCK
UniProt Q92598: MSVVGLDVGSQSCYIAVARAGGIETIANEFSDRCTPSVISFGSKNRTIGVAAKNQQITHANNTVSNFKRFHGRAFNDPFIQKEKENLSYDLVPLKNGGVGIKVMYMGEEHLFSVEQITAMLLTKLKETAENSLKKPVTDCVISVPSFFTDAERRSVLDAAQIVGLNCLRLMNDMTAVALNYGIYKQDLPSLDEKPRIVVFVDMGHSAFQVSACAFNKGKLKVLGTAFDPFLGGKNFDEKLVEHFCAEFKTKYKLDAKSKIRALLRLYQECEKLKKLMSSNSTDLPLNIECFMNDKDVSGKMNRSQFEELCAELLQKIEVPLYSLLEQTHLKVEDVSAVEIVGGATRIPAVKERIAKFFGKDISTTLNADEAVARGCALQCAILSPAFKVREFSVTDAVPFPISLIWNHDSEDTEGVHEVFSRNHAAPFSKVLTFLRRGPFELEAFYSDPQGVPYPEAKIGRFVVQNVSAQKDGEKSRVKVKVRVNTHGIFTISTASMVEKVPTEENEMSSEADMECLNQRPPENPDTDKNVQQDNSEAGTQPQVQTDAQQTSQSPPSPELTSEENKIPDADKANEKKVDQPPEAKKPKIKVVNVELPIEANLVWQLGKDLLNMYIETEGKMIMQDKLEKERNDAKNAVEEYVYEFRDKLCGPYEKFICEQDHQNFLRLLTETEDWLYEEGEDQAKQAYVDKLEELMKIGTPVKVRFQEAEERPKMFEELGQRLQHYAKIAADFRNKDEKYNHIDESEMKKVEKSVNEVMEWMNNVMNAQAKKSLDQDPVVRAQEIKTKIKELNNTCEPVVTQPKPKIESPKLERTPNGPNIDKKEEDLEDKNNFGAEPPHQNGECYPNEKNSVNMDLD
UniProt Q92576, whole entry, looked up: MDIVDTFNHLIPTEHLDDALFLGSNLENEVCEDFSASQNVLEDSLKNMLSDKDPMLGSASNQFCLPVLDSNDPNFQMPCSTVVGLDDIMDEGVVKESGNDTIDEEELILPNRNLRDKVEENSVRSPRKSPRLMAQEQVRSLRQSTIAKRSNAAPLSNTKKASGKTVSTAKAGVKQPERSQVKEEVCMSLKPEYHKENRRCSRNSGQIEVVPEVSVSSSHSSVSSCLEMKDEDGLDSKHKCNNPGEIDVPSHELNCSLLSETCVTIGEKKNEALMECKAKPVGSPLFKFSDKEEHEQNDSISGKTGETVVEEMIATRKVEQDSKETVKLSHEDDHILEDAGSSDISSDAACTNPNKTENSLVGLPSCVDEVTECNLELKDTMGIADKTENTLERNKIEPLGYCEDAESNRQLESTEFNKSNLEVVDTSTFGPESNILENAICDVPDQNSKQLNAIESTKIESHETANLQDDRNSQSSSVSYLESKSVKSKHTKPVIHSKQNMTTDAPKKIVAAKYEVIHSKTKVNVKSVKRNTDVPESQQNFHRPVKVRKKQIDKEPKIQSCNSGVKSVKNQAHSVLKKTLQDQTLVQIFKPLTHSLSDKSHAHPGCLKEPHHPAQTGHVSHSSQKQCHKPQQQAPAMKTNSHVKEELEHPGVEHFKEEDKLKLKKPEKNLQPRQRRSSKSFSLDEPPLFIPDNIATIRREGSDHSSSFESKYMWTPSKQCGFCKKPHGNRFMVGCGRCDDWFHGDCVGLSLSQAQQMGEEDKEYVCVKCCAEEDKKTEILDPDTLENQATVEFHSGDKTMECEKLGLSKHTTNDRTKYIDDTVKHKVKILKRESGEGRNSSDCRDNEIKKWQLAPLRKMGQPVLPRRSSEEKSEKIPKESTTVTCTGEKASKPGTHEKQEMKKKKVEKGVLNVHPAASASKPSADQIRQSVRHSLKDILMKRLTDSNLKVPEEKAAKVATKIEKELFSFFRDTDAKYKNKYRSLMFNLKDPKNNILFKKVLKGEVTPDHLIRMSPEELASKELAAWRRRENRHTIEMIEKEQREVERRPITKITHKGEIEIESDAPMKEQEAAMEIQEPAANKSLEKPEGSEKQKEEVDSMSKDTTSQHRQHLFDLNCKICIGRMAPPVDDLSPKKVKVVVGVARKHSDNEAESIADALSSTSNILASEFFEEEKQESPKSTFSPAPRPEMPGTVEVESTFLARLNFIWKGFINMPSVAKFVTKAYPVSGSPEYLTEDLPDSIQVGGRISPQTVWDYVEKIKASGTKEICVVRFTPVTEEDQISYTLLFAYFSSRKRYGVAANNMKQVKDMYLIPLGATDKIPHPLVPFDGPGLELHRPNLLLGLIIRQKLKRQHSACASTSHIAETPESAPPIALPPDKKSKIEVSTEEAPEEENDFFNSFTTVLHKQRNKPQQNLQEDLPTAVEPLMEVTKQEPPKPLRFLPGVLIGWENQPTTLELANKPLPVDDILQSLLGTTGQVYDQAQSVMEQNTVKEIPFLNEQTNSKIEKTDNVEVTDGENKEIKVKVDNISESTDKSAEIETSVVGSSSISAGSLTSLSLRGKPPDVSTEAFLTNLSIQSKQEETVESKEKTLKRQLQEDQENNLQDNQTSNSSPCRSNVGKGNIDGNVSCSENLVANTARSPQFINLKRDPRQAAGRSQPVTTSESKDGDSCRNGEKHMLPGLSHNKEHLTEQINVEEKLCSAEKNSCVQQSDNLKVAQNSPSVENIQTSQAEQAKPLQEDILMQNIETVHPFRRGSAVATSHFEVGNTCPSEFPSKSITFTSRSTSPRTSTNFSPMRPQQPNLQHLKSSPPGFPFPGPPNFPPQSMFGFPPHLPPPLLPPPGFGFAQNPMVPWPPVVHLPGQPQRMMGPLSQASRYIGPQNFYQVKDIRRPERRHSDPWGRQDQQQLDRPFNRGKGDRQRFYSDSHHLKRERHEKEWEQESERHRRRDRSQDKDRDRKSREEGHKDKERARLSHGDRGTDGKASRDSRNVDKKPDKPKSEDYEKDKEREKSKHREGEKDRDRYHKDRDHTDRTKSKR

The list shows a part of the results, in another mix than the full data.

Compound in this experiment: COC(=O)C#Cc1ccccc1 [methyl 3-phenylpropiolate]
As to the kind of experiment: log2 ratio of iodoacetamide-alkyne labeling of the cysteine site, DMSO over compound (competition); higher = stronger covalent engagement of the cysteine by the compound, active = 1 or more. As to conditions: 500 µM; treatment time 1 h; system: HEK293T cell lysate. The gist of the method:
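After 1 h at ambient temperature with vehicle or electrophile (500 µM), HEK293T lysate (2 mg/mL) was labelled for 1 h with iodoacetamide alkyne and clicked to sCIP-TMT reagents. Pooled samples were trypsin-digested overnight at 37 °C, streptavidin-enriched, acid-eluted and analysed by Orbitrap Eclipse LC-MS/MS with FAIMS, then quantified in FragPipe over three replicates with duplicate channels. A cysteine's log2 competition ratio is its mean control-channel over mean compound-channel reporter intensity. Cysteines quantified in only one replicate were not included.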
For RAD50 C157 (UniProt Q92878), the “log2 ratio of iodoacetamide-alkyne labeling” value (“log2 ratio” for short) was inactive: 0.00476. The figure for OTUB1 C91 (UniProt Q96FW1) is inactive: 0.103; for TUBGCP3 C497 (UniProt Q96CW5) it is inactive: 0.282; for PDXP C26 (UniProt Q96GD0) it is inactive: 0.0486. Next, GBF1 C613 (UniProt Q92538): inactive: 0.825; GBF1 C1272 (UniProt Q92538): inactive: 0.278. Turning to UniProt Q96ES7_C243, the “log2 ratio” value was inactive: 0.131. The figure for R3HDM4 C29 (UniProt Q96D70) is inactive: 0.31; for CCDC97 C136 (UniProt Q96F63) it is inactive: 0.0442.

Regarding TBRG4 C246 (UniProt Q969Z0), the “log2 ratio” value was inactive: 0.063.

As to KHSRP C379 (UniProt Q92945), the “log2 ratio” value is inactive: 0.0013.

In the case of CMBL C8 (UniProt Q96DG6), the “log2 ratio” value is inactive: 0.444. As for ARPC1A C13 (UniProt Q92747), the “log2 ratio” value is inactive: -0.0704. The figure for ZNF503 C219 (UniProt Q96F45) is inactive: 0.598; for UniProt Q96HE7_C241 it is inactive: 0.0793. The figure for DPF2 C298 (UniProt Q92785) is inactive: 0.175; for LIN37 C28 (UniProt Q96GY3) it is inactive: 0.0818. The figure for EFHD2 C172 (UniProt Q96C19) is inactive: 0.169; for NT5C3B C56 (UniProt Q969T7) it is inactive: 0.535; for UniProt Q96GD4_C234 it is inactive: 0.62. Consider TUBGCP3 C274 (UniProt Q96CW5), for which the “log2 ratio” value is inactive: 0.436. Next, KCTD12 C50 (UniProt Q96CX2): inactive: 0.429; NUP205 C877 (UniProt Q92621): inactive: 0.102; GCDH C115 (UniProt Q92947): inactive: 0.212. Next, DHX38 C27 (UniProt Q92620): active: 1.36; AKAP1 C147 (UniProt Q92667): active: 1.02. Next, NUP205 C1662 (UniProt Q92621): inactive: 0.151; UniProt Q96GS4_C176: inactive: 0.558; UniProt Q92888_C892: inactive: 0.0678. As for PTCD3 C642 (UniProt Q96EY7), the “log2 ratio” value is inactive: 0.535. For WBP2 C80 (UniProt Q969T9), the “log2 ratio” value was inactive: 0.811. Next, UniProt Q92615_C633: inactive: 0.556; HSPH1 C658 (UniProt Q92598): inactive: 0.0521; UPF1 C657 (UniProt Q92900): inactive: 0.234. The figure for RNF31 C504 (UniProt Q96EP0) is inactive: 0.285. With ANP32B C27 (UniProt Q92688), the “log2 ratio” value was inactive: 0.262.

Consider PHF3 C885 (UniProt Q92576), for which the “log2 ratio” value was inactive: 0.985.
